These are yes or no findings as the source states them, for the method shown. Some results given as binding are weak or reduced against the parent protein; the word gives no strength.
Molecular target: IL-6 (biotin-labeled) (UniProt P05231)
Experiment: phage ELISA on biotin-labeled IL-6, […] CaCl2 against 1 mM EDTA

Sequences of proteins named here, by UniProt entry; tags and fusion partners are left off. Residues count along the entry.
UniProt P05231, residues 30-212: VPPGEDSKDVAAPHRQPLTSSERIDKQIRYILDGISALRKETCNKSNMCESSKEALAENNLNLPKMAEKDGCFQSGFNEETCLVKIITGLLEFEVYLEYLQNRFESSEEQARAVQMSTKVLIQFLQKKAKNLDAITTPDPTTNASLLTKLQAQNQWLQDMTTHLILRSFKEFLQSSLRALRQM

- binding: binds
B1: antibody 6KC4-1#85 (Fab, V domains shown)
VH: EVQLVESGGGLVQPGGSLRLSCAASGFTFSSYEMNWVRQAPGKGLEWVSYISSSGSTIYYADSVKGRFTISRDNAKNSLYLQMNSLRAEDTAVYYCARDAPYYYDSSGYTDAFDIWGQGTMVTVSS
VL: EIVLTQSPATLSLSPGERATLSCRASQSVSSYLAWYQQKPGQAPRLLIFDASNRAAGIPARFSGSGSGTDFTLTISSLEPEDFAVYYCQQFDKWVTFGGGTTVEIR
